Results from PMC4270438.

Target: SCL (wild type human SCL, short isoform p22) (human)
Experiment: co-IP; thymocyte extracts immunoprecipitated with the indicated antibodies, followed by western blotting

binding: binds
B1: LMO1 (protein, UniProt P25800 1-156)
chain: MMVLDKEDGVPMLSVQPKGKQKGCAGCNRKIKDRYLLKALDKYWHEDCLKCACCDCRLGEVGSTLYTKANLILCRRDYLRLFGTTGNCAACSKLIPAFEMVMRARDNVYHLDCFACQLCNQRFCVGDKFFLKNNMILCQMDYEEGQLNGTFESQVQ

Results are given in words; binding and its absence hold for the method and conditions named. In cells and extracts the contact can be indirect. A result given as binding can be weak or reduced; the word gives no strength.
